Reference: US20230203127A1

Molecular target: HLA-A*02:01 (human)
Test: UV peptide-exchange ELISA, exchange yield grade

binding, binds:
KTASINQNV [… (SEQ ID NO: 18)]
LLGDSSFFL [… (SEQ ID NO: 166)]
LVVDEGSLVSV [… (SEQ ID NO: 167)]
VIFEGEPMYL [… (SEQ ID NO: 168)]
ALADLSVAV [… (SEQ ID NO: 169)]
FIAAVVEKV [… (SEQ ID NO: 170)]
LLLLDVPTA [… (SEQ ID NO: 171)]
RLIDIYKNV [… (SEQ ID NO: 173)]
ALYSGDLHAA [… (SEQ ID NO: 174)]
SLLDLVQSL [… (SEQ ID NO: 175)]
VQSGLRILL [… (SEQ ID NO: 176)]
KVFELDLVTL [… (SEQ ID NO: 19)]
ALINVLNAL [… (SEQ ID NO: 177)]
SLVSWQLLL [… (SEQ ID NO: 178)]
TLGEIIKGV [… (SEQ ID NO: 179)]
RLYEEEIRI [… (SEQ ID NO: 180)]
LLWAPTAQA [… (SEQ ID NO: 181)]
GLQDGFQITV [… (SEQ ID NO: 182)]
ALSYILPYL [… (SEQ ID NO: 183)]
ALDSTIAHL [… (SEQ ID NO: 184)]
TLYQGLPAEV [… (SEQ ID NO: 185)]
SILKEDPFL [… (SEQ ID NO: 187)]
ALVEKGEFAL [… (SEQ ID NO: 20)]
VLGEEQEGV [… (SEQ ID NO: 188)]
SLSTELFKV [… (SEQ ID NO: 190)]
AAIEIFEKV [… (SEQ ID NO: 191)]
TLLPSSGLVTL [… (SEQ ID NO: 192)]
ALFHMNILL [… (SEQ ID NO: 193)]
KLLEEVQLL [… (SEQ ID NO: 194)]
VIIQNLPAL [… (SEQ ID NO: 195)]
ILTNKVVSV [… (SEQ ID NO: 198)]
SVADLAHVL [… (SEQ ID NO: 199)]
IMPTFDLTKV [… (SEQ ID NO: 200)]
YLMDDFSSL [… (SEQ ID NO: 21)]
FLFVDPELV [… (SEQ ID NO: 203)]
SEWGSPHAAVP [… (SEQ ID NO: 204)]
GLDAFRIFL [… (SEQ ID NO: 206)]
KLFETVEEL [… (SEQ ID NO: 207)]
HLNNDRNPL [… (SEQ ID NO: 208)]
GLAGDNIYL [… (SEQ ID NO: 210)]
LLTTVLINA [… (SEQ ID NO: 211)]
MTLSEIHAV [… (SEQ ID NO: 212)]
ILAVDGVLSV [… (SEQ ID NO: 213)]
ALFETLIQL [… (SEQ ID NO: 214)]
LMYPYIYHV [… (SEQ ID NO: 22)]
QIADIVTSV [… (SEQ ID NO: 215)]
ALSTVTPRI [… (SEQ ID NO: 216)]
LLWPSSVPA [… (SEQ ID NO: 217)]
GVVPTIQKV [… (SEQ ID NO: 219)]
ALSELERVL [… (SEQ ID NO: 220)]
IMLNSVEEI [… (SEQ ID NO: 221)]
LLTGVFAQL [… (SEQ ID NO: 222)]
ALHPVQFYL [… (SEQ ID NO: 223)]
LLFDWSGTGRADA [… (SEQ ID NO: 224)]
RVIDDSLVVGV [… (SEQ ID NO: 3)]
ALLSPLSLA [… (SEQ ID NO: 23)]
FLPQPVPLSV [… (SEQ ID NO: 225)]
SLAGNLQEL [… (SEQ ID NO: 226)]
SEMEELPSV [… (SEQ ID NO: 227)]
SLLELDGINLRL [… (SEQ ID NO: 228)]
YLYELEHAL [… (SEQ ID NO: 229)]
KLLNMIFSI [… (SEQ ID NO: 230)]
LLDDIFIRL [… (SEQ ID NO: 231)]
SLFESLEYL [… (SEQ ID NO: 233)]
VLLNEILEQV [… (SEQ ID NO: 234)]
SLLNQPKAV [… (SEQ ID NO: 235)]
KVWSDVTPL [… (SEQ ID NO: 24)]
KMSELQTYV [… (SEQ ID NO: 236)]
ALLEQTGDMSL [… (SEQ ID NO: 237)]
HLQEKLQSL [… (SEQ ID NO: 238)]
VIIKGLEEITV [… (SEQ ID NO: 239)]
KQFEGTVEI [… (SEQ ID NO: 241)]
KLQEEIPVL [… (SEQ ID NO: 242)]
GLAEFQENV [… (SEQ ID NO: 243)]
NVAEIVIHI [… (SEQ ID NO: 244)]
ALLEEEEGV [… (SEQ ID NO: 245)]

Results are given in words; binding and its absence hold for the method and conditions named. Binding can be weak; no strength is given.
